Laboratory results as given in PubChem BioAssay AID933 (National Center for Advancing Translational Sciences (NCATS), 2007).
This list was built around the results that the source calls inconclusive (neither active nor inactive); the mix of calls is not that of the screen. Potencies beside an inconclusive call are fits to weak or partial responses and may not hold up. “Side channel” marks fits to a control or component signal instead of the main read-out. Activity calls are given as the source filed them. Calls follow the shape of the dose curve; as a rule, active = well fitted activation curve with a large enough effect in the signal ratio, with a control signal flat; inconclusive = small, poorly fitted or top-dose-only effect, or a change in a side signal; inactive = flat fitted curve, though single readings scatter; the % refers to the signal ratio.

Protein sequences, listed by entry. Tags and fused reporters are not part of them.
UniProt P16473, whole entry, looked up: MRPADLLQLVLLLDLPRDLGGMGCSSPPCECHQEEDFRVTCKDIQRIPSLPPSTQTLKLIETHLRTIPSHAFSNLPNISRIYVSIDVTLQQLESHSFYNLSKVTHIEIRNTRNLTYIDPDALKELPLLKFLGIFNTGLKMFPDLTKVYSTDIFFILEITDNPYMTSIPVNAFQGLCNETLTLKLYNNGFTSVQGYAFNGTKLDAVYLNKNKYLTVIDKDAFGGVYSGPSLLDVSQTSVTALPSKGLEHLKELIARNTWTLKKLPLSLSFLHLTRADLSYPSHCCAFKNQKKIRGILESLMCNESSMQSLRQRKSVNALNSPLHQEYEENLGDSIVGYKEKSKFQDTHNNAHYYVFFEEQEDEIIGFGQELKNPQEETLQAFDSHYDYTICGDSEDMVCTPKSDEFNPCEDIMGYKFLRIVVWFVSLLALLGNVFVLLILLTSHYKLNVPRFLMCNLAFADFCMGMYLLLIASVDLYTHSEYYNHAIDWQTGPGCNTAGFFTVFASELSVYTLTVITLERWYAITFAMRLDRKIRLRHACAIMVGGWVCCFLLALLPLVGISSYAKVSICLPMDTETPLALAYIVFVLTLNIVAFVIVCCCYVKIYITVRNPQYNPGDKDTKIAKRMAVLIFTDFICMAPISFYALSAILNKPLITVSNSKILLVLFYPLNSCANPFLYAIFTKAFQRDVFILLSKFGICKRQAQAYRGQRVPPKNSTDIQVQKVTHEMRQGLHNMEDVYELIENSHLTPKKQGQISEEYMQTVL

What follows are molecules tested against Thyrotropin receptor (Homo sapiens) (UniProt P16473) (assay: Secondary Concentration-Response Assay for Agonists of the Thyroid Stimulating Hormone Receptor: HTRF Activity Detection). Conditions: HEK293-TSHR cells, cAMP HTRF ratio, 30 min; series mostly up to 91.7 µM; activation: at the top concentration.
How it was run: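 cAMP accumulation was detected by antibody-based HTRF, excitation 330 nm, emissions 615 and 660 nm. Compounds acted for 30 min at room temperature on stably TSHR-transfected HEK 293 cells, with phosphodiesterase inhibitor RO 20-1724 (100 uM) in the medium.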
For activation in this document: % of control where 0% means no effect.
Potency is read from the fitted curve at half-maximal effect.

Row | Compound | activation | Potency
1 | COc1ccc(C2Nc3ccccc3C(=O)N2c2ccccc2F)cc1COc1ccc(NC(C)=O)cc1 (stereo not given) | inactive: 11.4% | 
2 | COc1ccc(CNc2ccccc2C(=O)NCc2ccccc2)cc1COc1ccc(NC(C)=O)cc1 |  | inconclusive: 17.8 µM [activator, partial curve]
3 | O=C(COC(=O)C12CC3CC(CC(Cl)(C3)C1)C2)NCc1ccco1 |  | active: 14.1 µM
4 | COc1ccc(C2Nc3cccc(OC)c3C(=O)N2Cc2ccccc2)cc1COc1ccc(NC(C)=O)cc1 (stereo not given) |  | inconclusive: 17.8 µM [activator, partial curve]
5 | COc1ccc(C(=O)N(Cc2ccco2)Cc2cccs2)c(OC)c1 |  | inconclusive: 0.316 µM [side channel, rising, partial curve, poor fit]
6 | COc1ccc(C2N(Cc3ccccc3)C(=O)c3ccccc3N2C)cc1COc1ccc(NC(C)=O)cc1 (stereo not given) |  | inconclusive: 7.94 µM [activator, full curve]
7 | COc1ccc(C2Nc3ccccc3C(=O)N2Cc2ccc(-c3ccccc3)cc2)cc1COc1ccc(NC(C)=O)cc1 (stereo not given) |  | inconclusive: 2.82 µM [activator, full curve]
8 | O=C(CSc1nnc(-c2ccccc2)n1Cc1ccco1)Nc1ccc2c(c1)OCCO2 | inactive: -0.544% [at 0.00035 µM] | 
9 | CCCCN1C(=O)c2ccccc2NC1c1ccc(OC)c(COc2ccc(NC(C)=O)cc2)c1 (stereo not given) |  | active: 20 µM
10 | COc1ccc(C2Nc3ccccc3C(=O)N2Cc2cccc3ccccc23)cc1COc1ccc(NC(C)=O)cc1 (stereo not given) |  | inconclusive: 6.31 µM [activator, full curve]
